Results as given in PMC5785033.
These are yes or no findings as the source states them, for the method shown. Binding seen in cells or lysates may run through a third protein. Some entries that bind do so weakly or less than the wild type. For some assays here: Sequences can lack the tags named with a protein.

T1: MORC2A (mouse (endogenous in testis)) (UniProt Q69ZX6)
T1 sequence: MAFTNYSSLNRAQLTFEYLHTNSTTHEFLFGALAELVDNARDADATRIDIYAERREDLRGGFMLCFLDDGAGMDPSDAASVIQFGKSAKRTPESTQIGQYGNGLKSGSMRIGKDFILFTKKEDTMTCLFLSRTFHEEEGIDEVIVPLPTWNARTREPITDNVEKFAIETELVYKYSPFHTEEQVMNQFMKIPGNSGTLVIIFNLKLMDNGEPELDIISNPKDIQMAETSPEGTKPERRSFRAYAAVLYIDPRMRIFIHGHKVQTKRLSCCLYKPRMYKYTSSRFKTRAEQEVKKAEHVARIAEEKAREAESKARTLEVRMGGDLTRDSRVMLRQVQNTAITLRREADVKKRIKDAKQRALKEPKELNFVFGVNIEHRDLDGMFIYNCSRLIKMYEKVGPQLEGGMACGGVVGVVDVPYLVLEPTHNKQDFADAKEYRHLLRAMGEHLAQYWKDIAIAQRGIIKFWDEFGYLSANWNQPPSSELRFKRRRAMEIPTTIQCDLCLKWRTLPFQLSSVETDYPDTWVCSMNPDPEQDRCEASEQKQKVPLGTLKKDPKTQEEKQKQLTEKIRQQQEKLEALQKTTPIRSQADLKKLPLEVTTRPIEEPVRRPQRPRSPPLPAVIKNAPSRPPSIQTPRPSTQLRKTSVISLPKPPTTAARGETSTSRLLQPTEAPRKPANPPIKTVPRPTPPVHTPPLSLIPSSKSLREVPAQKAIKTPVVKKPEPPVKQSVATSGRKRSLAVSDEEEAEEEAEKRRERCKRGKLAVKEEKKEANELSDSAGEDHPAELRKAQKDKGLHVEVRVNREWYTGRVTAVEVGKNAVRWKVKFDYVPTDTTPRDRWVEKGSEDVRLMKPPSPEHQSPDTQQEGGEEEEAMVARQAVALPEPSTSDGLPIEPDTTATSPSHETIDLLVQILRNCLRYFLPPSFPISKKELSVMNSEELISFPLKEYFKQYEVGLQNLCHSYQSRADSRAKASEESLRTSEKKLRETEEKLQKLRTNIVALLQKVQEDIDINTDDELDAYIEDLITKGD

T2: tagged MORC2B (pcDNA3.1/V5-His-TOPO) (mouse) (UniProt Q8C5W4)
T2 sequence: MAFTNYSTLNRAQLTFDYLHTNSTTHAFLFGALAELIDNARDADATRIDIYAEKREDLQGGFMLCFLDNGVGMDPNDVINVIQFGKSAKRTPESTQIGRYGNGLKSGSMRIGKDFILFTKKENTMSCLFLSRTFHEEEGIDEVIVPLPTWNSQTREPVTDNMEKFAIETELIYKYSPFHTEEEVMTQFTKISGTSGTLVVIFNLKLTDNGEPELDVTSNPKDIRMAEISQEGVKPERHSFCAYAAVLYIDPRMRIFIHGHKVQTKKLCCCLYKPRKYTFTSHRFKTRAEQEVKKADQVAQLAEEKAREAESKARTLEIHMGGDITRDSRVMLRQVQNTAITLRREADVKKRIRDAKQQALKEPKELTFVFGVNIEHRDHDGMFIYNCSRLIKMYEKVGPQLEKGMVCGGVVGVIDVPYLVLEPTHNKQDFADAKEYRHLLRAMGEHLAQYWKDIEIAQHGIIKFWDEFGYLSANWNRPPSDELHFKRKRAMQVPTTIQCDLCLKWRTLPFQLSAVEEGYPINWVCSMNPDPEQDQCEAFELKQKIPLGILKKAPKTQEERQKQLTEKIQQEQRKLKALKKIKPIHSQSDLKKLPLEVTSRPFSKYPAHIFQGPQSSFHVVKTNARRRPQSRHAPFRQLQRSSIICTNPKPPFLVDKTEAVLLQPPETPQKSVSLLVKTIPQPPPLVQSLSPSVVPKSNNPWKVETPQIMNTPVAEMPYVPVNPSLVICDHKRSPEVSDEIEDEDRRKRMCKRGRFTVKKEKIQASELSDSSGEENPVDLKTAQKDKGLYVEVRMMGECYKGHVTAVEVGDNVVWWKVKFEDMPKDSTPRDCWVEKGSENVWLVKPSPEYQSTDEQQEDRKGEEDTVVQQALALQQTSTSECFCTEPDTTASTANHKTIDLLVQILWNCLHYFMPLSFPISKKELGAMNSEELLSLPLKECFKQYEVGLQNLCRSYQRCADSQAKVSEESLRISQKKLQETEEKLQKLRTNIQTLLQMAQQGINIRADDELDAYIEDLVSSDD


Experiments:
[1] = target: T1, MORC2A (mouse (endogenous in testis)); test: co-IP; PND20 testicular protein extracts; IP with anti-MORC2A antibody, western blot for MORC2B
[2] = target: T2, tagged MORC2B (pcDNA3.1/V5-His-TOPO) (mouse); test: co-IP; tagged MORC2A and MORC2B co-expressed in HEK 293T cells; lysis in 50 mM HEPES pH 7.5, 140 mM NaCl, 1 mM DTT, 10% glycerol, 0.5% NP-40; IP with anti-V5 antibody, western blot with anti-Myc antibody

binding [1] | binding [2] | Binder
binds |  | MORC2B (protein, UniProt Q8C5W4-1 1-1022) MAFTNYSTLNRAQLTFDYLHTNSTTHAFLFGALAELIDNARDADATRIDIYAEKREDLQGGFMLCFLDNGVGMDPNDVINVIQFGKSAKRTPESTQIGRYGNGLKSGSMRIGKDFILFTKKENTMSCLFLSRTFHEEEGIDEVIVPLPTWNSQTREPVTDNMEKFAIETELIYKYSPFHTEEEVMTQFTKISGTSGTLVVIFNLKLTDNGEPELDVTSNPKDIRMAEISQEGVKPERHSFCAYAAVLYIDPRMRIFIHGHKVQTKKLCCCLYKPRKYTFTSHRFKTRAEQEVKKADQVAQLAEEKAREAESKARTLEIHMGGDITRDSRVMLRQVQNTAITLRREADVKKRIRDAKQQALKEPKELTFVFGVNIEHRDHDGMFIYNCSRLIKMYEKVGPQLEKGMVCGGVVGVIDVPYLVLEPTHNKQDFADAKEYRHLLRAMGEHLAQYWKDIEIAQHGIIKFWDEFGYLSANWNRPPSDELHFKRKRAMQVPTTIQCDLCLKWRTLPFQLSAVEEGYPINWVCSMNPDPEQDQCEAFELKQKIPLGILKKAPKTQEERQKQLTEKIQQEQRKLKALKKIKPIHSQSDLKKLPLEVTSRPFSKYPAHIFQGPQSSFHVVKTNARRRPQSRHAPFRQLQRSSIICTNPKPPFLVDKTEAVLLQPPETPQKSVSLLVKTIPQPPPLVQSLSPSVVPKSNNPWKVETPQIMNTPVAEMPYVPVNPSLVICDHKRSPEVSDEIEDEDRRKRMCKRGRFTVKKEKIQASELSDSSGEENPVDLKTAQKDKGLYVEVRMMGECYKGHVTAVEVGDNVVWWKVKFEDMPKDSTPRDCWVEKGSENVWLVKPSPEYQSTDEQQEDRKGEEDTVVQQALALQQTSTSECFCTEPDTTASTANHKTIDLLVQILWNCLHYFMPLSFPISKKELGAMNSEELLSLPLKECFKQYEVGLQNLCRSYQRCADSQAKVSEESLRISQKKLQETEEKLQKLRTNIQTLLQMAQQGINIRADDELDAYIEDLVSSDD
 | binds | tagged MORC2A (pcDNA3.1/myc-His) (protein, UniProt Q69ZX6 1-1030) MAFTNYSSLNRAQLTFEYLHTNSTTHEFLFGALAELVDNARDADATRIDIYAERREDLRGGFMLCFLDDGAGMDPSDAASVIQFGKSAKRTPESTQIGQYGNGLKSGSMRIGKDFILFTKKEDTMTCLFLSRTFHEEEGIDEVIVPLPTWNARTREPITDNVEKFAIETELVYKYSPFHTEEQVMNQFMKIPGNSGTLVIIFNLKLMDNGEPELDIISNPKDIQMAETSPEGTKPERRSFRAYAAVLYIDPRMRIFIHGHKVQTKRLSCCLYKPRMYKYTSSRFKTRAEQEVKKAEHVARIAEEKAREAESKARTLEVRMGGDLTRDSRVMLRQVQNTAITLRREADVKKRIKDAKQRALKEPKELNFVFGVNIEHRDLDGMFIYNCSRLIKMYEKVGPQLEGGMACGGVVGVVDVPYLVLEPTHNKQDFADAKEYRHLLRAMGEHLAQYWKDIAIAQRGIIKFWDEFGYLSANWNQPPSSELRFKRRRAMEIPTTIQCDLCLKWRTLPFQLSSVETDYPDTWVCSMNPDPEQDRCEASEQKQKVPLGTLKKDPKTQEEKQKQLTEKIRQQQEKLEALQKTTPIRSQADLKKLPLEVTTRPIEEPVRRPQRPRSPPLPAVIKNAPSRPPSIQTPRPSTQLRKTSVISLPKPPTTAARGETSTSRLLQPTEAPRKPANPPIKTVPRPTPPVHTPPLSLIPSSKSLREVPAQKAIKTPVVKKPEPPVKQSVATSGRKRSLAVSDEEEAEEEAEKRRERCKRGKLAVKEEKKEANELSDSAGEDHPAELRKAQKDKGLHVEVRVNREWYTGRVTAVEVGKNAVRWKVKFDYVPTDTTPRDRWVEKGSEDVRLMKPPSPEHQSPDTQQEGGEEEEAMVARQAVALPEPSTSDGLPIEPDTTATSPSHETIDLLVQILRNCLRYFLPPSFPISKKELSVMNSEELISFPLKEYFKQYEVGLQNLCHSYQSRADSRAKASEESLRTSEKKLRETEEKLQKLRTNIVALLQKVQEDIDINTDDELDAYIEDLITKGD
